Results from article PMC5739603.
These are yes or no findings as the source states them, for the method shown. For some of these results: In cells and extracts the contact can be indirect. Some results given as binding are weak or reduced against the parent protein; the word gives no strength. For some of these results: Sequences can lack the tags named with a protein. Each block holds one binder with its values, some of them ahead of it.

The chains behind the UniProt entries cited, without tags or fusion partners.
UniProt P33993: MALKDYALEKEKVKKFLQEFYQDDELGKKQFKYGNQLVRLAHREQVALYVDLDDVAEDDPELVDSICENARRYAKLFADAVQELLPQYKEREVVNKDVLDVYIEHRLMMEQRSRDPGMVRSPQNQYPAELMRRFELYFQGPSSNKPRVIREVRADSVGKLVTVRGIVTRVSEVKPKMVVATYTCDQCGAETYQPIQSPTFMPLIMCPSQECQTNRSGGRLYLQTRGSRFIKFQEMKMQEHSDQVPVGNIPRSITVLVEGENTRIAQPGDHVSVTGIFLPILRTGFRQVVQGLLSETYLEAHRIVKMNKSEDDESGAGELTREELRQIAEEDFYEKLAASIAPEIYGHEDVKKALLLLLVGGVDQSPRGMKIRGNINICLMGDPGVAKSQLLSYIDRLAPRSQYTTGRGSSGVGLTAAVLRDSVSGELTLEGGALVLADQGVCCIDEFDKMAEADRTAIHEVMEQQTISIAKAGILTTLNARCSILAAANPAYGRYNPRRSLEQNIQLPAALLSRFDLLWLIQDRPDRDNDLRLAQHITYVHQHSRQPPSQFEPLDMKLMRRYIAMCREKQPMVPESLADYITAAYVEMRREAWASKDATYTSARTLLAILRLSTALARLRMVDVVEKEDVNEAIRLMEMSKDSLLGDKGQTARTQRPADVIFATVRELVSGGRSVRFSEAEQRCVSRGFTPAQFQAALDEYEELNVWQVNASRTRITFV

Assays:
[1] = target: pBD-MCM7 (minichromosome maintenance complex component 7 fused to the bait domain) (UniProt P33993); assay: two-hybrid; pBD-MCM7 as bait, pAD-lamin B2 as prey; growth on SD-Leu-Trp-His-Ade, beta-galactosidase assay
[2] = target: MCM7 (endogenous, A549) (human (endogenous in A549)) (UniProt P33993); assay: co-IP; A549 cells with rising amounts (1, 2.5, 5 ug) of shLMNB2 or GFP-LMNB2; RB bound to MCM7 read by blot
[3] = target: Flag-MCM7 (full length) (UniProt P33993); assay: co-IP; lysates of A549 cells co-transfected with Flag-MCM7 and GFP-Lamin B2; IP with anti-GFP or anti-Flag, blot with GFP or FLAG antibody
[4] = target: Flag-MCM7 (full length) (UniProt P33993); assay: co-IP; A549 cells with FLAG-MCM7 (full length) or V5-ΔMCM7; lamin B2 of the lysate found by blot
[5] = target: MCM7 (endogenous, A549) (human (endogenous in A549)) (UniProt P33993); assay: co-IP; A549 cell lysates (NP-40 lysis buffer), IP with anti-lamin B2 or anti-MCM7 antibody, protein G sepharose; endogenous proteins
[6] = target: Flag-MCM7 (full length) (UniProt P33993); assay: co-IP; A549 cells transfected with HA-RB and Flag-MCM7 or V5-ΔMCM7; IP with anti-Flag or anti-HA, blot with anti-HA, anti-FLAG or anti-V5

binding [1]: binds
B1: pAD-lamin B2 (lamin B2 fused to the activation domain) (protein, UniProt Q03252 1-620)
chain: MSPPSPGRRREQRRPRAAATMATPLPGRAGGPATPLSPTRLSRLQEKEELRELNDRLAHYIDRVRALELENDRLLLKISEKEEVTTREVSGIKALYESELADARRVLDETARERARLQIEIGKLRAELDEVNKSAKKREGELTVAQGRVKDLESLFHRSEVELAAALSDKRGLESDVAELRAQLAKAEDGHAVAKKQLEKETLMRVDLENRCQSLQEELDFRKSVFEEEVRETRRRHERRLVEVDSSRQQEYDFKMAQALEELRSQHDEQVRLYKLELEQTYQAKLDSAKLSSDQNDKAASAAREELKEARMRLESLSYQLSGLQKQASAAEDRIRELEEAMAGERDKFRKMLDAKEQEMTEMRDVMQQQLAEYQELLDVKLALDMEINAYRKLLEGEEERLKLSPSPSSRVTVSRATSSSSGSLSATGRLGRSKRKRLEVEEPLGSGPSVLGTGTGGSGGFHLAQQASASGSVSIEEIDLEGKFVQLKNNSDKDQSLGNWRIKRQVLEGEEIAYKFTPKYILRAGQMVTVWAAGAGVAHSPPSTLVWKGQSSWGTGESFRTVLVNADGEEVAMRTVKKSSVMRENENGEEEEEEAEFGEEDLFHQQGDPRTTSRGCYVM

binding [4]: binds | binding [5]: binds
B3: lamin B2 (endogenous, A549) (protein, UniProt Q03252 1-620)
chain: B1 chain

binding [2]: binds
B5: RB (retinoblastoma protein) in A549 lysate (protein, UniProt P06400 1-928)
chain: MPPKTPRKTAATAAAAAAEPPAPPPPPPPEEDPEQDSGPEDLPLVRLEFEETEEPDFTALCQKLKIPDHVRERAWLTWEKVSSVDGVLGGYIQKKKELWGICIFIAAVDLDEMSFTFTELQKNIEISVHKFFNLLKEIDTSTKVDNAMSRLLKKYDVLFALFSKLERTCELIYLTQPSSSISTEINSALVLKVSWITFLLAKGEVLQMEDDLVISFQLMLCVLDYFIKLSPPMLLKEPYKTAVIPINGSPRTPRRGQNRSARIAKQLENDTRIIEVLCKEHECNIDEVKNVYFKNFIPFMNSLGLVTSNGLPEVENLSKRYEEIYLKNKDLDARLFLDHDKTLQTDSIDSFETQRTPRKSNLDEEVNVIPPHTPVRTVMNTIQQLMMILNSASDQPSENLISYFNNCTVNPKESILKRVKDIGYIFKEKFAKAVGQGCVEIGSQRYKLGVRLYYRVMESMLKSEEERLSIQNFSKLLNDNIFHMSLLACALEVVMATYSRSTSQNLDSGTDLSFPWILNVLNLKAFDFYKVIESFIKAEGNLTREMIKHLERCEHRIMESLAWLSDSPLFDLIKQSKDREGPTDHLESACPLNLPLQNNHTAADMYLSPVRSPKKKGSTTRVNSTANAETQATSAFQTQKPLKSTSLSLFYKKVYRLAYLRLNTLCERLLSEHPELEHIIWTLFQHTLQNEYELMRDRHLDQIMMCSMYGICKVKNIDLKFKIIVTAYKDLPHAVQETFKRVLIKEEEYDSIIVFYNSVFMQRLKTNILQYASTRPPTLSPIPHIPRSPYKFPSSPLRIPGGNIYISPLKSPYKISEGLPTPTKMTPRSRILVSIGESFGTSEKFQKINQMVCNSDRVLKRSAEGSNPPKPLKKLRFDIEGSDEADGSKHLPGESKFQQKLAEMTSTRTRMQKQKMNDSMDTSNKEEK

More lines, now with the values behind:

B2: GFP-Lamin B2 (protein, UniProt Q03252 1-620)
chain: B1 chain
binding [2]: binds | binding [3]: binds

B4: HA-RB (retinoblastoma protein) (protein, UniProt P06400 1-928)
chain: B5 chain
binding [6]: binds
